Results published in PubChem BioAssay AID2685 (National Center for Advancing Translational Sciences (NCATS), 2010).
This is one part of the list. Shown are side measurements of this screen, not its main read-out; they come without a call. The list favours compounds with an active or inconclusive main result. The note in brackets gives the kind of curve behind each potency; many fits are weak.

Assay: qHTS Assay for Lipid Storage Modulators in Drosophila S3 Cells;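 as to cell number change: cells counted by Cell Tracker Red CMTPX staining in the red channel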
Settings: BODIPY lipid droplet fluorescence, 18-24 h; for cell number change: measured here: cell count max response, cells fed with added oleic acid
In short: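 Drosophila S3 cells loaded with oleic acid (400 uM, as added) and compounds at several concentrations; lipid droplets imaged by 488-nm laser-scanning cytometry, 500–530 nm intensity and object ratio to cell channel. Percent activity normalized to 20 uM Triacsin C.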

[1] = measured here: cell number channel AC50, cells fed with added oleic acid
[2] = measured here: lipid fluorescence (Fed channel) AC50, cells fed with added oleic acid

Compound: CCC(C(=O)NCCc1ccccc1OC)n1nc(C)c2c(C)n(-c3ccccc3)nc2c1=O (stereo not drawn)
- cell number change: -5.32%
- AC50 [1]: 0.0058 µM [rising, full curve, poor fit]

Compound: Cc1onc(-c2ccccc2)c1-c1nc2ccccc2c(=O)o1
- AC50 [1]: 0.82 µM [falling, full curve, poor fit]
- AC50 [2]: 6.51 µM [falling, single point]

Compound: CC(=O)N1CCOc2ccc(S(=O)(=O)N3CCCC(C)C3)cc21 (stereo not drawn)
- AC50 [2]: 29.1 µM [falling, single point]

Compound: CC1CCN(C(=O)Cn2cnc3c2c(=O)n(C)c(=O)n3C)c2ccccc2S1 (stereo not drawn)
- cell number change: 11.1%
- AC50 [2]: 29.1 µM [falling, single point]

Compound: O=C(O)C1CCC(=O)N1Cc1ccc(F)cc1 (stereo not drawn)
- cell number change: 20.6%
- AC50 [2]: 29.1 µM [falling, single point]

Compound: Cc1cccc(-c2nnc3n2N=C(c2ccccc2Br)CS3)c1
- cell number change: -19.9%
- AC50 [2]: 9.2 µM [falling, partial curve]

Compound: CCC(C(=O)NCCc1ccccc1)c1ccccc1 (stereo not drawn)
- cell number change: 22%
- AC50 [2]: 29.1 µM [rising, single point]

Compound: CCc1ccc2c(c1)[C@]1(C(=O)N2)[C@@H]2C(=O)N(Cc3ccccc3)C(=O)[C@@H]2[C@@H]2CCCN21
- cell number change: -0.419%

Compound: CCC(C)(C)NC(=O)C1CCN(S(=O)(=O)c2cccs2)CC1
- cell number change: 22.2%

Compound: COC(=O)C1=C(C)NC(C)=C(C(=O)OC)C1/C=C/c1ccccc1
- cell number change: 137%
- AC50 [1]: 29.1 µM [rising, single point]
- AC50 [2]: 29.1 µM [rising, single point]

Compound: O=C(NC12CC3CC(CC(C3)C1)C2)N1CCCC(CO)C1 (stereo not drawn)
- cell number change: -58.1%
- AC50 [1]: 16.4 µM [falling, single point]

Compound: CCc1nnc(NC(=O)COc2ccc3ccccc3c2)s1
- cell number change: -16.2%

Compound: Cc1ccc(C)c2sc(N)nc12
- cell number change: 11.3%

Compound: Oc1c(Br)cc(Br)cc1CNc1ccc(F)cc1
- cell number change: 9.18%
- AC50 [1]: 2.06 µM [falling, partial curve]

Compound: COc1cc(/C=C2\SC(=S)N(NC(=O)c3ccc(O)cc3)C2=O)ccc1O
- cell number change: -93%
- AC50 [1]: 25.9 µM [falling, partial curve, poor fit]
- AC50 [2]: 18.4 µM [falling, partial curve]

Compound: N#CC1=C(C=Nc2ccccc2O)CCC1
- cell number change: -46.8%
- AC50 [1]: 23.1 µM [falling, single point]
- AC50 [2]: 3.66 µM [falling, full curve]

Compound: CN1CCN(CC(=O)NC2CCCCC2)CC1
- cell number change: -59.7%
- AC50 [1]: 18.4 µM [falling, partial curve]
- AC50 [2]: 29.1 µM [falling, single point]

Compound: CC1Cc2nc(SCC(=O)N3CCN(c4ccccc4)CC3)n(CCc3ccccc3)c(=O)c2S1 (stereo not drawn)
- cell number change: 2.02%
- AC50 [1]: 1.84 µM [rising, single point]
- AC50 [2]: 0.651 µM [rising, single point]

Compound: COc1ccc(OCc2nnc(SCC(=O)N3c4ccccc4Sc4ccc(Cl)cc43)o2)cc1
- cell number change: -12%
- AC50 [2]: 25.9 µM [falling, partial curve]

Compound: COc1ccc(NS(=O)(=O)c2cccc(C(=O)N/N=C(\C)c3cccnc3)c2)cc1
- cell number change: 2.26%
- AC50 [2]: 29.1 µM [falling, single point]

Compound: Cc1ccc(C(C(=O)NCc2ccccc2)N(C(=O)c2csnn2)C2CC2)cc1 (stereo not drawn)
- cell number change: 14.1%
- AC50 [2]: 0.13 µM [rising, full curve, poor fit]

Compound: CCOC(=O)c1cnc(-n2nc(C)cc2C)[nH]c1=O
- cell number change: 6.51%
- AC50 [2]: 20.6 µM [rising, single point]

Compound: Cc1cccc(-c2noc(CNC(=O)COc3ccccc3C)n2)c1
- cell number change: -20.8%

Compound: C=CCSc1nc2ccccc2[nH]1
- cell number change: 2.78%

Compound: CNC(=O)c1ccccc1F
- cell number change: -37.7%
- AC50 [1]: 1.64 µM [falling, full curve, poor fit]

Compound: CCC(Sc1nc2cc3c(cc2c(=O)n1Cc1ccco1)OCO3)C(=O)Nc1cccc(OC)c1 (stereo not drawn)
- cell number change: -25.6%
- AC50 [2]: 29.1 µM [falling, single point]

Compound: Cc1cccc(CSc2nc3ccncc3n2CC(=O)Nc2cc(C)cc(C)c2)c1
- cell number change: 8.28%
- AC50 [2]: 0.116 µM [falling, full curve, poor fit]

Compound: Cc1cccc(NC(=O)CCCN=C2NS(=O)(=O)c3ccccc32)c1C
- cell number change: -8.3%

Compound: CCOc1ccc(NC(=O)c2ccc3nccnc3c2)cc1
- cell number change: 13.7%
- AC50 [1]: 0.00411 µM [rising, full curve, poor fit]

Compound: O=C(NCCc1ccccc1F)C1CC(=O)N(c2ccccc2)C1 (stereo not drawn)
- cell number change: 3.72%
- AC50 [2]: 29.1 µM [rising, single point]

Compound: COc1cccc(NC(=O)CN(C)C(=O)/C=C/c2cn(Cc3ccccc3)nc2-c2cccnc2)c1
- cell number change: 87.6%
- AC50 [1]: 14.6 µM [rising, partial curve]

Compound: O=S(=O)(/C=C/c1ccccc1)N1CCN(Cc2ccccc2)CC1
- cell number change: -38.7%

Compound: COC(=O)c1ccnc(SCC(=O)c2ccccc2)c1
- cell number change: -41.7%
- AC50 [1]: 0.116 µM [falling, full curve, poor fit]
- AC50 [2]: 0.411 µM [falling, full curve, poor fit]

Compound: COc1ccc(OC)c(S(=O)(=O)NCCO)c1
- cell number change: 1.45%
- AC50 [1]: 0.731 µM [falling, full curve]

Compound: O=C(c1ccc([N+](=O)[O-])cc1[N+](=O)[O-])n1cnc2ccccc21
- cell number change: 108%
- AC50 [1]: 29.1 µM [rising, partial curve, poor fit]

Compound: CCNC(=O)c1ccc(CSc2ccc(Cl)cc2)cc1
- cell number change: -0.244%
- AC50 [2]: 20.6 µM [rising, single point]

Compound: CCN1CC(CN(C)Cc2nc(-c3ccc(C(F)(F)F)cc3)no2)CC1=O (stereo not drawn)
- cell number change: -26.5%
- AC50 [2]: 29.1 µM [falling, single point]

Compound: O=C(Nc1ccccc1N1CCCCC1)C1CC(=O)N(c2ccccc2F)C1 (stereo not drawn)
- cell number change: -13.2%

Compound: O=C(Cc1ccc(F)cc1)Nc1nccs1
- cell number change: -9.89%
- AC50 [2]: 29.1 µM [falling, single point]

Compound: Cc1nc(-c2ccc(NC(=O)C3CC3)cc2)cs1
- cell number change: 32.5%

Compound: O=C(Nc1ccc(Cc2ccncc2)cc1)c1ccc(N2CCOCC2)c([N+](=O)[O-])c1
- cell number change: 57.5%
- AC50 [1]: 32.6 µM [rising, single point]
- AC50 [2]: 29.1 µM [rising, single point]
